Measurements: the supplement of paper PMC7646827
Many values rest on one well or one pass, so single values are uncertain.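 All cells are established human bladder cancer lines, one derived from a patient-derived xenograft. A luminescent ATP assay measured viability as percent inhibition relative to vehicle across seven dilutions. The paper rates scores above 59 very active, 30–59 active, 21–29 semi-active, 9–20 low active, below 9 inactive.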

Key:
Assay in all cases: drug sensitivity score DSS3 (score 0-100); higher = more sensitive; extreme values may be limits of the assay
Conditions in all cases: culture: 3D, ultra-low attachment; treatment time: 5 days
[1] = system: UM-UC-9
[2] = system: UM-UC-1
[3] = system: UM-UC-18
[4] = system: UM-UC-6
[5] = system: SCaBER
[6] = system: UM-UC-14
[7] = system: UM-UC-3
[8] = system: J82
[9] = system: UM-UC-12
[10] = system: 5637
[11] = system: TCCSUP
[12] = system: T-24
[13] = system: BC8149
[14] = system: SW780
[15] = system: UM-UC-15
[16] = system: UM-UC-5
[17] = system: UM-UC-17

SMILES | drug sensitivity score DSS3 [1] | drug sensitivity score DSS3 [2] | drug sensitivity score DSS3 [3] | drug sensitivity score DSS3 [4] | drug sensitivity score DSS3 [5] | drug sensitivity score DSS3 [6] | drug sensitivity score DSS3 [7] | drug sensitivity score DSS3 [8] | drug sensitivity score DSS3 [9] | drug sensitivity score DSS3 [10] | drug sensitivity score DSS3 [11] | drug sensitivity score DSS3 [12] | drug sensitivity score DSS3 [13] | drug sensitivity score DSS3 [14] | drug sensitivity score DSS3 [15] | drug sensitivity score DSS3 [16] | drug sensitivity score DSS3 [17]
CN(C)C(=O)[C@H](O)[C@H](Cc1ccccc1)NC(=O)c1cc2cc(Cl)ccc2[nH]1 (max dose 10000 nM) | 0 | 0 | 0 | 0.183 | 0 | 0 | 0 | 0 | 0 | 0 | 0 | 0 | 0 | 0 | 6.93 | 0 | 0
CO[C@@H](C)Cn1c(=O)n(C)c2cnc3ccc(-c4cncc(C(C)(C)O)c4)cc3c21 (max dose 10000 nM) | 6.88 | 25.9 | 33.5 | 27.8 | 27.4 | 34.3 | 26.8 | 14.6 | 46.3 | 38.1 | 48.5 | 10.3 | 60.5 | 3.47 | 10.3 | 24.5 | 20.2
CCCCCCOC(=O)c1cc(=O)c(O)c2c(O)c(O)c(OC)cc2c1 [Cu-CPT22] (max dose 10000 nM) | 0.0886 | 0 | 0 | 0.0285 | 0 | 0 | 0 | 0 | 0.911 | 0 | 0 | 0 | 0.0355 | 0 | 0 | 0 | 0
CCNC(=O)[C@H]1O[C@@H](n2cnc3c(N)nc(NCCc4ccc(CCC(=O)O)cc4)nc32)[C@H](O)[C@@H]1O (max dose 10000 nM) | 0 | 0 | 0 | 0 | 0 | 0 | 0 | 0 | 0 | 0 | 0 | 0 | 0 | 0 | 0 | 0 | 0
O=C(Nc1ccccc1)N1CCN(c2nc(-c3ccccc3)ns2)CC1 (max dose 10000 nM) | 0 | 0 | 0 | 0 | 0 | 0 | 0 | 0 | 0.0171 | 0 | 0 | 0 | 0 | 0 | 0 | 0 | 0
CC(C)(NS(=O)(=O)c1ccc2c(Cl)cnc(N=C(N)N)c2c1)C(=O)O (max dose 10000 nM) | 0 | 0 | 0 | 0 | 0 | 0 | 0 | 0 | 0 | 0 | 0 | 0 | 0 | 0 | 0 | 0 | 0
Cc1nnc(NS(=O)(=O)c2ccc(N)cc2)s1 [Sulfamethizole] (max dose 10000 nM) | 0 | 0 | 0 | 0 | 0 | 0 | 0 | 0 | 0 | 0 | 0 | 0 | 0 | 0 | 0 | 0 | 0
COC(=O)c1ccc2c(c1)NC(=O)/C2=C(\Nc1ccc(N(C)C(=O)CN2CCN(C)CC2)cc1)c1ccccc1 [Nintedanib (BIBF 1120)] (max dose 10000 nM) | 0 | 0 | 2.66 | 0.522 | 8.46 | 1.2 | 7.59 | 0.511 | 18.2 | 3.33 | 1.81 | 16.7 | 0 | 0 | 0 | 0 | 0
COc1cc2c(Oc3ccc4[nH]c(C)cc4c3F)ncnc2cc1OCCCN1CCCC1 [Cediranib] (max dose 10000 nM) | 6.67 | 10.4 | 0 | 0 | 0 | 7.65 | 0 | 0 | 13.4 | 0 | 0.619 | 0 | 0 | 0 | 0 | 10.7 | 0
O=C(Nc1cccc(C(F)(F)F)c1)Nc1cc(S(=O)(=O)NC2CC2)ccc1-c1ccsc1 [AGI-6780] (max dose 10000 nM) | 0 | 0 | 0 | 0 | 0 | 0 | 2.51 | 0 | 0 | 0 | 0.0814 | 0.637 | 1.16 | 0 | 14.6 | 0 | 0
